The record followed here is patent US5128398A, “Phenolic compound and its use as stabilizer for butadiene polymer” (Sumitomo Chemical Company, Limited, priority 1987, dated 1992).

Data set [1] can be described thus: Gelation time of polybutadiene rubber in Laboplastmill kneading test under nitrogen (torque peak). The conditions noted are these: 180° C.
Data set [2] is described as follows: Degree of discoloration of polybutadiene rubber after high temperature preparation process (naked eye). More on the design: key: .largecircle.: No discoloration; Δ: Discoloration in light yellow; X: Discoloration in yellow. The conditions noted are these: flash distillation 190°-200° C., nitrogen.
Data set [3] is described as follows: Degree of discoloration of stranded styrene-butadiene block copolymer after high temperature processing (visual). More on the design: key: .largecircle.: No discoloration; Δ: Discoloration in light yellow; X: Discoloration in yellow. The conditions noted are these: strand, cylinder 230°-260° C.
Where [4] appears, read: loading 0.4 part by weight per 100 parts polybutadiene.
Setting [5] is: loading 0.8 part by weight per 100 parts polybutadiene.
Setting [6] is: loading 0.4 part by weight per 100 parts block copolymer.
Where [7] appears, read: loading 0.8 part by weight per 100 parts block copolymer.
Where [8] appears, read: loading 0.2 part by weight per 100 parts polybutadiene.
[9] abbreviates: loading 0.2 part by weight per 100 parts block copolymer.

As to `C=CC(=O)Oc1c(Cc2cc(C)cc(C(C)(C)C)c2O)cc(C)cc1C(C)(C)C` [AO-1, 2-t-Butyl-6-(3-t-butyl-2-hydroxy-5-methylbenzyl)-4-methylphenyl acrylate], the Gelation time amounted to 31 min in data set [1] (setting [4]) and 42 min in data set [1] (setting [5]). Moreover, the Degree of discoloration entry in data set [2] (setting [4]) is “Δ”; in data set [2] (setting [5]), “X”; in data set [3] (setting [6]), “Δ”; in data set [3] (setting [7]), “X”.

`C=CC(=O)Oc1c(C(C)c2cc(C(C)(C)C)cc(C(C)(C)C)c2O)cc(C(C)(C)C)cc1C(C)(C)C` (centres unmarked) [AO-2, 2,4-Di-t-butyl-6-[1-(3,5-di-t-butyl-2-hydroxyphenyl)ethyl]phenyl acrylate]: the Gelation time in data set [1] (setting [8]) came out at 45 min; in data set [1] (setting [4]) it was 67 min. Moreover, the Degree of discoloration entry in data set [2] (setting [8]), in data set [2] (setting [4]), in data set [3] (setting [9]) and in data set [3] (setting [6]) was “.largecircle” each time.

Take `Cc1cc(C(C)(C)C)c(O)c(C(C)(C)C)c1` [AO-3, 2,6-Di-t-butyl-4-methylphenol]: the Gelation time in data set [1] (setting [4]) was determined as 10 min; in data set [1] (setting [5]), 14 min.

As to `CCCCCCCCCCCCCCCCCCOC(=O)CCc1cc(C(C)(C)C)c(O)c(C(C)(C)C)c1` [AO-4, n-Octadecyl 3-(3,5-di-t-butyl-4-hydroxyphenyl)propionate], the Gelation time in data set [1] (setting [4]) was 8 min; in data set [1] (setting [5]), 13 min. Moreover, the Degree of discoloration result in data set [2] (setting [4]), in data set [2] (setting [5]), in data set [3] (setting [6]) and in data set [3] (setting [7]) was “.largecircle” throughout.

As for `C=CC(=O)Oc1c(C(C)c2cc(C(C)(C)CC)cc(C(C)(C)CC)c2O)cc(C(C)(C)CC)cc1C(C)(C)CC` (centres unmarked) [II-1, 2,4-di-t-amyl-6-[1-(3,5-di-t-amyl-2-hydroxyphenyl)ethyl]phenyl acrylate], the values for the Gelation time in data set [1] (setting [8]) and in data set [1] (setting [4]) were 47 min and 71 min, respectively. The Degree of discoloration result in data set [2] (setting [8]), in data set [2] (setting [4]), in data set [3] (setting [9]) and in data set [3] (setting [6]) was “.largecircle” throughout.

Take `C=C(C)C(=O)Oc1c(C(C)c2cc(C(C)(C)CC)cc(C(C)(C)CC)c2O)cc(C(C)(C)CC)cc1C(C)(C)CC` (centres unmarked) [II-2, 2,4-di-t-amyl-6-[1--(3,5-di-t-amyl-2-hydroxyphenyl)ethyl]phenyl methacrylate]: the Gelation time in data set [1] (setting [8]) came to 43 min; in data set [1] (setting [4]), 68 min. Moreover, the Degree of discoloration entry in data set [2] (setting [8]), in data set [2] (setting [4]), in data set [3] (setting [9]) and in data set [3] (setting [6]) was “.largecircle” throughout.
